Experimental data published in article PMC9126595, “Identification of 3-(piperazinylmethyl)benzofuran derivatives as novel type II CDK2 inhibitors: design, synthesis, biological evaluation, and in silico insights” (Journal of Enzyme Inhibition and Medicinal Chemistry, 2022).

Test system: non-tumorigenic human lung fibroblast MRC-5 cell line
Assay: Normal cell cytotoxicity, MRC-5
Assay type: cell-based
Settings: IC50 in normal lung cell (MRC-5)/IC50 in cancerous lung cells A-549
Experimental: To test the safety of the newly synthesised compounds and their selectivity towards cancer cells, their cytotoxic activity was tested on non-tumorigenic human lung fibroblast MRC-5 cell line.

**Q.** Which “SI (safety index)” value does the source give for `COc1cccc(NC(=S)NNC(=O)c2oc3ccccc3c2CN2CCN(c3ccccc3)CC2)c1` [Compound 9b] here?
**A.** 3.59

**Q.** With `COc1ccc(NC(=S)NNC(=O)c2oc3ccccc3c2CN2CCN(c3ccccc3)CC2)cc1` [Compound 9c] as the compound, how does the “SI (safety index)” value read?
**A.** 3.62

**Q.** For `O=C(NNC(=S)Nc1cccc(C(F)(F)F)c1)c1oc2ccccc2c1CN1CCN(c2ccccc2)CC1` [Compound 9h], which “SI (safety index)” value is on record?
**A.** 16.20

**Q.** `O=C(NNC(=S)Nc1cccc(Cl)c1)c1oc2ccccc2c1CN1CCN(c2ccccc2)CC1` [Compound 9f] was tested. Which “SI (safety index)” value did it give?
**A.** 3.08

**Q.** With `O=C(NNC(=S)Nc1ccc(F)cc1)c1oc2ccccc2c1CN1CCN(c2ccccc2)CC1` [Compound 9e] as the compound, how does the “SI (safety index)” value read?
**A.** 9.92

**Q.** For `O=C(NN=C1CCCc2ccccc21)c1oc2ccccc2c1CN1CCN(c2ccccc2)CC1` [Compound 17], which “SI (safety index)” value is on record?
**A.** 4.82

**Q.** Which “SI (safety index)” value does the source give for `CC(=O)c1ccc(NC(=S)NNC(=O)c2oc3ccccc3c2CN2CCN(c3ccccc3)CC2)cc1` [Compound 9i] here?
**A.** 4.86

**Q.** How did the “SI (safety index)” value turn out when `O=C(NNC(=S)Nc1ccccc1)c1oc2ccccc2c1CN1CCN(c2ccccc2)CC1` [Compound 9a] was run?
**A.** 4.75

**Q.** How did the “SI (safety index)” value turn out when `COc1ccc(C=NNC(=O)c2oc3ccccc3c2CN2CCN(c3ccccc3)CC2)cc1` [Compound 13c] was run?
**A.** 8.41

**Q.** Which “SI (safety index)” value does the source give for `O=C(NNC(=S)Nc1ccc(Cl)cc1)c1oc2ccccc2c1CN1CCN(c2ccccc2)CC1` [Compound 9g] here?
**A.** 3.09

**Q.** For `CC(=NNC(=O)c1oc2ccccc2c1CN1CCN(c2ccccc2)CC1)c1ccccc1` [Compound 15a], which “SI (safety index)” value is on record?
**A.** 4.59

**Q.** How did the “SI (safety index)” value turn out when `O=C(NNC(=S)Nc1cccc(F)c1)c1oc2ccccc2c1CN1CCN(c2ccccc2)CC1` [Compound 9d] was run?
**A.** 4.11

**Q.** Which “SI (safety index)” value does the source give for `O=C(NN=Cc1ccccc1)c1oc2ccccc2c1CN1CCN(c2ccccc2)CC1` [Compound 13a] here?
**A.** >4.60

**Q.** For `COc1ccc(C(C)=NNC(=O)c2oc3ccccc3c2CN2CCN(c3ccccc3)CC2)cc1` [Compound 15b], which “SI (safety index)” value is on record?
**A.** 5.62

**Q.** `COc1cccc(C=NNC(=O)c2oc3ccccc3c2CN2CCN(c3ccccc3)CC2)c1` [Compound 13b] was tested. Which “SI (safety index)” value did it give?
**A.** 10.58
